2 molecules from doi:10.1101/831701 can be followed below.

Amino acid sequences for entries named in this document (tags omitted).
UniProt O95568: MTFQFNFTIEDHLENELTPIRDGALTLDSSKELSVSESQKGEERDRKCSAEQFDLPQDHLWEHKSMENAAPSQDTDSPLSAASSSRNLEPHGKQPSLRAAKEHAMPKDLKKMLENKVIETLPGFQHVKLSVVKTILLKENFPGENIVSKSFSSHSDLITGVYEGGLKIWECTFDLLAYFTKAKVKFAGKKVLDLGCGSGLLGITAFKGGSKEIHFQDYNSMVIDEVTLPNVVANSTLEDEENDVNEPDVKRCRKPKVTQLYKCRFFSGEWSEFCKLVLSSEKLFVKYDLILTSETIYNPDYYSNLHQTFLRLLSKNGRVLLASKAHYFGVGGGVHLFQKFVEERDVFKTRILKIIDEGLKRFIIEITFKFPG

For test [1], the target named is Myc-tagged wild type METTL18 construct (Myc-METTL18) (human) (UniProt O95568). The test is described as follows: co-IP.
The next test has as its target HA-HSP90AA1 (UniProt P07900). The test is described as follows: co-IP.

These are yes or no findings as the source states them, for the method shown. In cells and extracts the contact can be indirect. Some results given as binding are weak or reduced against the parent protein; the word gives no strength. For some assays here: Sequences can lack the tags named with a protein.

Take HA-HSP90AA1 (from UniProt P07900 1-732): the binding result in test [1] is on record as “binds”.

B1: Flag-SETD3 (enzyme, UniProt Q86TU7 1-594)
chain: MGKKSRVKTQKSGTGATATVSPKEILNLTSELLQKCSSPAPGPGKEWEEYVQIRTLVEKIRKKQKGLSVTFDGKREDYFPDLMKWASENGASVEGFEMVNFKEEGFGLRATRDIKAEELFLWVPRKLLMTVESAKNSVLGPLYSQDRILQAMGNIALAFHLLCERASPNSFWQPYIQTLPSEYDTPLYFEEDEVRYLQSTQAIHDVFSQYKNTARQYAYFYKVIQTHPHANKLPLKDSFTYEDYRWAVSSVMTRQNQIPTEDGSRVTLALIPLWDMCNHTNGLITTGYNLEDDRCECVALQDFRAGEQIYIFYGTRSNAEFVIHSGFFFDNNSHDRVKIKLGVSKSDRLYAMKAEVLARAGIPTSSVFALHFTEPPISAQLLAFLRVFCMTEEELKEHLLGDSAIDRIFTLGNSEFPVSWDNEVKLWTFLEDRASLLLKTYKTTIEEDKSVLKNHDLSVRAKMAIKLRLGEKEILEKAVKSAAVNREYYRQQMEEKAPLPKYEESNLGLLESSVGDSRLPLVLRNLEEEAGVQDALNIREAISKAKATENGLVNGENSIPNGTRSENESLNQESKRAVEDAKGSSSDSTAGVKE
In the case of B1, the binding entry with HA-HSP90AA1 is listed as “no binding”.
